# In patent US11440969B2, “Use of human epididymis protein 4 (HE4) for assessing responsiveness of MUC 16-positive cancer treatment” (Genentech, Inc., priority 2016, dated 2022):
# B1: DMUC4064A (conjugate, chains of the INN, looked up)
# VH: EVQLVESGGGLVQPGGSLRLSCAASGYSITNDYAWNWVRQAPGKGLEWVGYISYSGYTTYNPSLKSRFTISRDTSKNTLYLQMNSLRAEDTAVYYCARWTSGLDYWGQGTLVTVSS
# VL: DIQMTQSPSSLSASVGDRVTITCKASDLIHNWLAWYQQKPGKAPKLLIYGATSLETGVPSRFSGSGSGTDFTLTISSLQPEDFATYYCQQYWTTPFTFGQGTKVEIK
# modifications: vedotin payload (MMAE)
# Test system: CA125
# Assay: Serum CA125 in ovarian cancer patients treated with anti-MUC16-TDC
# Type: in vivo, human
molecule,measurement,setting,value
B1,dependence of maximal decrease in serum CA125 on dose,1.0-5.6 mg/kg,did not appear to be dependent on the dose
same,"reduction in serum CA125, on treatment greater than five months vs less than five months",two-tailed t-test p=0.0017,significantly lower
